Assay results reported in PubChem BioAssay AID434947 (Broad Institute, 2010).
The campaign covered roughly 2,200 compounds. About 15 (0.7%) were called active.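 Rule for the calls: active = fitted half-maximal concentration for loss of luminescence signal no more than a set limit of log units above the top tested concentration; inconclusive = flat fit with 30 to 70% signal loss, or invalid fit; inactive = half-maximal concentration above that set limit.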 This is one part of the list.

assay: inhibitors of ADP-Glo detection reagents, dose response, artefact control for GSK3beta inhibitor project, biochemical, luminescence, cell-free, homogeneous (AID 434947); details: 5 uM ADP;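 note: kinase-free counter screen of ADP-Glo detection reagents for GSK3beta hits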

EC50, inactive:
CCN(CC)Cc1c(C(=O)N/N=C/c2ccco2)nnn1-c1nonc1N > 30 µM, O=C(NCc1ccccn1)c1ccc(Cn2cc(Br)cn2)o1 > 30 µM, CCc1nn(CC(=O)NCCN2CCOCC2)c(=O)c2cc3c(OC)cccc3n12 > 30 µM, Cc1ncc(/C=C2\C(=O)Nc3ccccc32)[nH]1 > 30 µM, CCOC(=O)c1cnc2ccc(F)cc2c1Nc1ccc2c(c1)OCCO2 > 30 µM, COC(=O)[C@@H]1Cc2c([nH]c3ccccc23)C2CCC(=O)N21 (stereo partly drawn) > 30 µM, CCOC(=O)C1(Cc2cccc(F)c2)CCN(Cc2cn(CC)nc2C)CC1 > 30 µM, O=C(O)c1cccnc1-c1ncccc1C(=O)O > 30 µM, Nc1nc(=S)c2ncn(C3OC(CO)C(O)C3O)c2[nH]1 (stereo not drawn) > 30 µM, Cc1nc(Nc2ccccc2)sc1C(=O)c1ccccc1 > 30 µM, N#Cc1c(N)nc2c3c(sc(=N)c2c1N)NC(=O)CC3c1ccccc1 (stereo not drawn) > 30 µM, CC(=O)N1CCc2c(sc(NC(=O)CCS(=O)(=O)c3ccccc3)c2C(N)=O)C1 > 30 µM, COc1cc(/C=N\Nc2ccc([N+](=O)[O-])cc2)ccc1OCC(=O)Nc1ccc(C)c(C)c1 > 30 µM, CCCCC(=O)Nc1ncc(Br)s1 > 30 µM, Cc1cc(NC(=O)CSc2nc(-c3cccnc3)ccc2C#N)no1 > 30 µM, O=Cc1cn(CCC(=O)O)nc1-c1cccc(Cl)c1 > 30 µM, COc1ccc(OC)c(/C=N/NC(=O)CCc2c(C)n[nH]c2C)c1 > 30 µM, O=C(NCCCN1CCCCC1)c1ccc2c(c1)NC(=O)c1ccccc1S2 > 30 µM, O=C(CCC1CCN(C(=O)c2cc(C(F)(F)F)ccc2Cl)CC1)NC1CC1 > 30 µM, CCn1nc(NC(=O)C2CCCO2)c2cc3cc(C)ccc3nc21 (stereo not drawn) > 30 µM, c1cncc(-c2nc(NCc3cccs3)c3ccccc3n2)c1 > 30 µM, COc1cccc2cc(C(=O)N(C)C)c(=O)oc12 > 30 µM, CCN(CC)C(=O)Cn1cc(C(=O)C(=O)Nc2ccc3c(c2)OCCO3)c2ccccc21 > 30 µM, O=Cc1cn(-c2ccccc2)nc1-c1ccc(F)cc1 > 30 µM, Nc1ncnc(N(c2ccccc2)C2CCCCC2)c1[N+](=O)[O-] > 30 µM, CC(C)c1ccc(/C=N/NC(=O)c2nnn(-c3nonc3N)c2CN2CCOCC2)cc1 > 30 µM, COc1ccc(N2CCN(c3cc(C)nc4ccc(OC)cc34)CC2)cc1 > 30 µM, O=C(COc1ccc(S(=O)(=O)N2CCCC2)cc1Cl)Nc1ccc2c(c1)OCO2 > 30 µM, CC(=O)Nc1ncc2c(n1)CC(c1ccco1)CC2=O (stereo not drawn) > 30 µM, O=c1cc(-c2ccccc2Cl)oc2cc(O)cc(O)c12 > 30 µM, CNc1nc(N)c([N+](=O)[O-])c(NCC2CCCO2)n1 (stereo not drawn) > 30 µM, COc1cc(OC)c2c(-c3ccccc3)cc(=O)oc2c1 > 30 µM, CC(C)CC(=O)Nc1ncc([N+](=O)[O-])s1 > 30 µM, COc1ccc(OCCN(C)Cc2ccccc2)cc1 > 30 µM, O=c1oc2cc(O)ccc2cc1-c1ccccc1 > 30 µM, O=S(=O)(c1ccc(Br)cc1)N1CCN(c2cc(-c3ccccc3)nc3ncnn23)CC1 > 30 µM, COc1ccc2c(c1)cc1c(=O)n(CC(=O)NCCCN3CCOCC3)nc(C)n12 > 30 µM, CCCCC(=O)Nc1nc2c(OC)cc([N+](=O)[O-])cc2s1 > 30 µM, Cc1ccc(C2C3=C(CC(C)(C)CC3=O)Nc3n[nH]c(C)c32)cc1 (stereo not drawn) > 30 µM, N#Cc1c(Cl)nc(-c2cccnc2)nc1-c1ccccc1 > 30 µM, COc1cccc(/C=C2/Sc3ccc(C(=O)NCCN4CCCC4)cc3NC2=O)c1 > 30 µM, NCCCNc1nc(N)c([N+](=O)[O-])c(NC2CCCCC2)n1 > 30 µM, CCc1nn(CC(=O)NCCC(C)C)c(=O)c2cc3c(OC)cccc3n12 > 30 µM, CC1(C)CC(=O)C2=C(C1)Nc1ccccc1NC2c1cccs1 (stereo not drawn) > 30 µM, COc1cccc2cc(C(=O)NCc3ccc(C)cc3)c(=O)oc12 > 30 µM, O=C(CCSCCc1ccccn1)Nc1cc(F)ccc1F > 30 µM, C/C(CC(=O)Nc1ccc2c(c1)OCO2)=N\NC(=O)c1ccc(N)cc1 > 30 µM, O=C(O)c1ccccc1NCc1cccnc1 > 30 µM, CCOc1cc(C2C(C(=O)N3CCCCC3)=C(C)NC3=C2C(=O)CC(C)(C)C3)ccc1O (stereo not drawn) > 30 µM, Cc1ccc(S(=O)(=O)CC(=O)Nc2ncc([N+](=O)[O-])s2)cc1 > 30 µM, CN(C)/C=C/C(=O)c1cnc(-c2cccc(Cl)c2)s1 > 30 µM, CCn1c(SCc2c(F)cccc2Cl)nnc1-c1ccco1 > 30 µM, COc1ccc(COC(=O)c2cccc(S(=O)(=O)N3CCN(C(C)=O)CC3)c2)cc1 > 30 µM, O=Cc1ccc(Oc2nc(Cl)ncc2F)cc1 > 30 µM, N#Cc1c(-c2ccccc2)nc(SCC(=O)Nc2nnc(C(F)(F)F)s2)[nH]c1=O > 30 µM, CCN1CCN(c2cc(C)c3cc(NC(=O)c4cccc(OC)c4)ccc3n2)CC1 > 30 µM, COc1cccc(/C=C2/Sc3ccc(C(=O)NCCN4CCCCCC4)cc3NC2=O)c1 > 30 µM, O=[N+]([O-])c1c(-c2cn[nH]c2)n[nH]c1-c1cn[nH]c1 > 30 µM, COc1cccc(N=Nc2c(N)[nH][nH]c2=O)c1 > 30 µM, Cc1ccc(NC(=O)NCCCN2CCCC2=O)cc1C > 30 µM, Clc1cccc(Nc2nc(-c3ccncc3)nc3ccccc23)c1 > 30 µM, Cc1cccc(COc2ccc(/C=C3/C(=O)N(C)C(=S)N3C)cc2)c1 > 30 µM, C=C(Cl)COc1ccc2c(CCCC)cc(=O)oc2c1 > 30 µM, Cc1cccc(Nc2nc(N)c([N+](=O)[O-])c(NCc3ccco3)n2)c1 > 30 µM, O=C(Nc1cccc(NC(=O)c2ccc3c(c2)OCO3)c1)c1ccccc1 > 30 µM, Cc1ccc2c(c1)N(C(=O)CCC(=O)NCc1ccccc1)CC(C)O2 (stereo not drawn) > 30 µM, O=C1CCCC2=C1C(c1cccs1)n1nc(SCc3ccccc3)nc1N2 (stereo not drawn) > 30 µM, COC(=O)CSc1ncnc2c1sc1nc(N3CCOCC3)c3c(c12)CCCC3 > 30 µM, CCCn1nc(NC(=O)c2cccs2)c2cc3cc(C)ccc3nc21 > 30 µM, COc1ccc(CN(CC(=O)NCc2ccccc2)C(=O)CCC(=O)Nc2ccccn2)cc1 > 30 µM, CC1(C)CC(=O)C=C(Nc2cccc(Cl)c2Cl)C1 > 30 µM, O=[N+]([O-])c1cc(Cl)ccc1N1CCCC1 > 30 µM, CCCc1cc(=O)oc2cc(C)c(CN3CCCC3)c(O)c12 > 30 µM, COc1ccc(C(=O)c2coc3ccc(O)c(CN4CCCCC4)c23)cc1 > 30 µM, CCCNc1nc(N)nc(-c2cc(Cl)ccc2OC)n1 > 30 µM, Cc1ccccc1CSc1nnc([C@@H]2CCCN2)o1 > 30 µM, O=C(O)c1cc(C2CC2)nc2ccccc12 > 30 µM, NS(=O)(=O)c1cc(C(=O)N=Nc2c(O)[nH]c3ccccc23)ccc1Cl > 30 µM, COc1cccc(C(=O)CSc2nccn2C)c1 > 30 µM, O=C(N/N=C/c1ccc2nccnc2c1)c1ccncc1 > 30 µM, CCCCn1nc(NC(=O)c2cccs2)c2cc3ccccc3nc21 > 30 µM, COc1cc(/C=C2/SC(=Nc3ccc(O)cc3)NC2=O)ccc1O > 30 µM, COc1ccc(CC(=O)Nc2nc(-c3ccccc3)c(C(C)=O)s2)cc1OC > 30 µM, CCCSCCCNC(=O)Cn1nc(CC)n2c(cc3c(OC)cccc32)c1=O > 30 µM, COc1ccc(NC(=O)Nc2ccccn2)cc1OC > 30 µM, CCOC(=O)C1=C(C)Nc2ncnn2C1/C=C/c1ccccc1 (stereo not drawn) > 30 µM, CC(C)(C)NC(=O)NC(=O)COc1ccc(Br)cc1Br > 30 µM, CCN(CC)Cc1c(C(=O)N/N=C/c2ccccn2)nnn1-c1nonc1N > 30 µM, CCOc1ccc(CNC(=O)C2CCN(c3nnc(C)c4c(C)n(-c5ccc(C)cc5)nc34)CC2)cc1 > 30 µM, O=c1c(O[C@@H]2O[C@H](CO)[C@@H](O)[C@H](O)[C@H]2O)c(-c2ccc(O)c(O)c2)oc2cc(O)cc(O)c12 > 30 µM, CCN1CCN(C(=O)c2ccc3c(c2)N(Cc2ccc(F)cc2)C(=O)c2ccccc2S3=O)CC1 (stereo not drawn) > 30 µM, Fc1ccc(CSc2nnc(-c3cccnc3)o2)cc1 > 30 µM, O=Cc1cn(CCC(=O)O)nc1-c1cccc(Br)c1 > 30 µM
